Experimental findings from doi:10.1101/2023.04.12.536585 are described below.

Amino acid sequences for entries named in this document (tags omitted).
UniProt P48736: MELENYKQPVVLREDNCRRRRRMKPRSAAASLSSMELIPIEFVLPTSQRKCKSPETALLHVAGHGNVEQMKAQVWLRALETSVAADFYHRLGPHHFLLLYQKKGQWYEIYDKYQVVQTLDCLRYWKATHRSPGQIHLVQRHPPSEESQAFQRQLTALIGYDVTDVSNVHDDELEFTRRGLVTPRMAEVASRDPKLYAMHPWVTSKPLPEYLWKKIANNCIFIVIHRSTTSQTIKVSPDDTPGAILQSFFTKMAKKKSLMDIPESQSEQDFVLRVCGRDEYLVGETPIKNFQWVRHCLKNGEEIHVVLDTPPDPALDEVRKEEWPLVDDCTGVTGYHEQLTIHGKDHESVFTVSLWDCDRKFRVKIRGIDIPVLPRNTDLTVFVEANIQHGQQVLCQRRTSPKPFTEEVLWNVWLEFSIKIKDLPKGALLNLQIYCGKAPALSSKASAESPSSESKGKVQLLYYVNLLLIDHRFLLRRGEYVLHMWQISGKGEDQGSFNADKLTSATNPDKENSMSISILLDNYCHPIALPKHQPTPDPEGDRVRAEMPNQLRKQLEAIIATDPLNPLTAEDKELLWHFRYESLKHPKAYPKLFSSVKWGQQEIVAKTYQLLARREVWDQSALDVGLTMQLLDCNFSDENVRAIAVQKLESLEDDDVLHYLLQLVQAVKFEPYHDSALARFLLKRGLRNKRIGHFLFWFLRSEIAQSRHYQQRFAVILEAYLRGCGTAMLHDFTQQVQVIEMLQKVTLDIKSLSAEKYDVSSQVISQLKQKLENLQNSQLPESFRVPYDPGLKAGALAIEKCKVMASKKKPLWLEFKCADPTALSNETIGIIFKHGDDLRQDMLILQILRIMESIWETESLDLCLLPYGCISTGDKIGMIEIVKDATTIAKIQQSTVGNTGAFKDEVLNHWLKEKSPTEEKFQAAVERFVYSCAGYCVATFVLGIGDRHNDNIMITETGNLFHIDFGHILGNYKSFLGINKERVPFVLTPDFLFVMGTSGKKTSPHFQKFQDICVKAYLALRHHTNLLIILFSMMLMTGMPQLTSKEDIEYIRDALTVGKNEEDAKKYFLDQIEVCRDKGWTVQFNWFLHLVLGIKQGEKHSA

Experiment [1] deals with T1, Sus scrofa p101 (porcine (Sus scrofa)) (UniProt O02696).
T1 sequence: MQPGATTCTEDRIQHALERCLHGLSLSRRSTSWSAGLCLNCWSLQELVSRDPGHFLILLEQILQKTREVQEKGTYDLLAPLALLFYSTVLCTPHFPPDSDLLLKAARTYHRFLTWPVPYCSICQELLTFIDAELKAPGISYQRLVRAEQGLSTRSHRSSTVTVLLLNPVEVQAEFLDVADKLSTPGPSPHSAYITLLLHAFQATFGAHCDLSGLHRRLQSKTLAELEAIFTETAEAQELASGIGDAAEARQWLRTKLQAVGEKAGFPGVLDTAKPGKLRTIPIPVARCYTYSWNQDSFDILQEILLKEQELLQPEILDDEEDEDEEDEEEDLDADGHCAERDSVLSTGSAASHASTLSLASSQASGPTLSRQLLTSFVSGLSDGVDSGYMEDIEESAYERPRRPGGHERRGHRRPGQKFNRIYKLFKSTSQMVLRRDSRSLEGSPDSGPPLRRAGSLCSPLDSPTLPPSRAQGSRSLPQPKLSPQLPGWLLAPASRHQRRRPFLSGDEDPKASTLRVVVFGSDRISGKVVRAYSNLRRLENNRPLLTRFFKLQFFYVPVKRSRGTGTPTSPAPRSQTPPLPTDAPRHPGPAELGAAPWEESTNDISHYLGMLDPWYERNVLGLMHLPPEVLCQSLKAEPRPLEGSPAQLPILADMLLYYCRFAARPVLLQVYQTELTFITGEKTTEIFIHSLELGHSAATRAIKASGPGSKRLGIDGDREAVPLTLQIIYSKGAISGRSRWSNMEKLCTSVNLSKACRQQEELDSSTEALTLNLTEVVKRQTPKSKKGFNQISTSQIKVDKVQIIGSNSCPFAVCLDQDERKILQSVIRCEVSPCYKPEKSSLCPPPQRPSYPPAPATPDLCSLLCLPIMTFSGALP
In words: co-purification (nickel affinity, streptavidin affinity, SEC); p110γ co-expressed in Sf9 with N-terminally 10xHis-2xStrep-tagged p84 or p101; complex purified through the tag on the regulatory subunit.

In experiment [2] the target is T2, Mus musculus p84 (mouse) (UniProt Q3U6Q4).
T2 sequence: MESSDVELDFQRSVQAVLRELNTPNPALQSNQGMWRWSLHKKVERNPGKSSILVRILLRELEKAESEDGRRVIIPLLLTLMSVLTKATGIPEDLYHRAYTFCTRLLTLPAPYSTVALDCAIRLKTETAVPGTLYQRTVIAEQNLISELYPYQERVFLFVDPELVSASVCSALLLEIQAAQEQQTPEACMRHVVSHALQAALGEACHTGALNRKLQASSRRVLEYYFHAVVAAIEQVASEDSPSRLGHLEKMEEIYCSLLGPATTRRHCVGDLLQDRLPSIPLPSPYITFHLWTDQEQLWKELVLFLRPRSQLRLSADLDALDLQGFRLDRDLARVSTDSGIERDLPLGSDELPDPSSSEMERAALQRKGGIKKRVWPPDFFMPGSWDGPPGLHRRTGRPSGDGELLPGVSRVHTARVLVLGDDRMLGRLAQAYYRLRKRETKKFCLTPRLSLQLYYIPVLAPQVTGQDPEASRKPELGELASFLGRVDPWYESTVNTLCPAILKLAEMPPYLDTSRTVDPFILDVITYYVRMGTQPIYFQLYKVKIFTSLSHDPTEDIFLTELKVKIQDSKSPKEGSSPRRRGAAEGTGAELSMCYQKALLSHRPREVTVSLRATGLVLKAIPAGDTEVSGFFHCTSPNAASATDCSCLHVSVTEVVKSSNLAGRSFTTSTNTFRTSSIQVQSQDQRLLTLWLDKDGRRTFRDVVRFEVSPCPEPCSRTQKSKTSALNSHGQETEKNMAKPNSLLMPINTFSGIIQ
The experiment is described as above.

These are yes or no findings as the source states them, for the method shown. Some binding calls cover weakened binding; strength is not graded here.

As to “p110γ co-expressed with tagged p84 or p101 (from UniProt P48736 1-1102) (enzyme)”, the binding result in experiment [1] and in experiment [2] was “binds” throughout.
